Structures can show the parent of a compound that is named as a salt. The list shows a part of the results. This data set is noisy: repeats of one test often differ as much as different tests do.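 Triple-negative MDA-MB-231 breast cancer cells and their brain-metastatic MDA-MB-231BRM derivative each stably expressed empty vector, full-length GLI1 or truncated tGLI1. CellTiter-Blue measured viability at 48 h relative to 1% DMSO vehicle. Compounds reducing viability 20% more in tGLI1 cells than in vector and GLI1 cells counted as tGLI1-selective.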
Tests used:
Test in all cases: cell viability relative to vehicle (DMSO) control (fraction); higher = more viable cells (less growth inhibition)
Details in all cases: treatment time 48 h
[1] = test system: MDA-MB-231 GLI1
[2] = test system: MDA-MB-231 Vector
[3] = test system: MDA-MB-231 tGLI1
[4] = test system: MDA-MB-231BRM GLI1
[5] = test system: MDA-MB-231BRM Vector
[6] = test system: MDA-MB-231BRM tGLI1

Row | SMILES | cell viability ([1]; 0.05 µM) | cell viability ([1]; 0.5 µM) | cell viability ([1]; 5 µM) | cell viability ([2]; 0.05 µM) | cell viability ([2]; 0.5 µM) | cell viability ([2]; 5 µM) | cell viability ([3]; 0.05 µM) | cell viability ([3]; 0.5 µM) | cell viability ([3]; 5 µM) | cell viability ([4]; 0.05 µM) | cell viability ([4]; 0.5 µM) | cell viability ([4]; 5 µM) | cell viability ([5]; 0.05 µM) | cell viability ([5]; 0.5 µM) | cell viability ([5]; 5 µM) | cell viability ([6]; 0.05 µM) | cell viability ([6]; 0.5 µM) | cell viability ([6]; 5 µM)
1 | CC(=O)[C@]1(O)Cc2c(O)c3c(c(O)c2[C@@H](O[C@H]2C[C@H](N)[C@H](O)[C@H](C)O2)C1)C(=O)c1ccccc1C3=O [Idarubicin HCl] | -0.16 | -0.199 | -0.204 | -0.402 | -0.446 | -0.471 | -0.266 | -0.299 | -0.308 | 0.188 | -0.0564 | -0.01 | 0.181 | -0.049 | -0.0489 | 0.202 | -0.0378 | -0.0472
2 | COc1cc(-c2cc(-c3ccc(N4CCNCC4)cc3)cnc2C)cc(OC)c1OC | 2.15 | 3.01 | 2.17 | 1.24 | 1.36 | 1.36 | 1.42 | 1.59 | 1.37 | 0.849 | 0.794 | 0.736 | 0.912 | 0.8 | 0.719 | 1.22 | 1.13 | 0.831
3 | Cc1ccc2nc(NCCN)c3ncc(C)n3c2c1 | 2.37 | 3.19 | 0.38 | 1.22 | 1.11 | 0.128 | 1.36 | 1.44 | 0.128 | 0.805 | 0.797 | 0.69 | 0.913 | 0.771 | 0.746 | 0.942 | 1.16 | 0.98
4 | CN(C)S(=O)(=O)c1ccc2c(c1)/C(=C/c1cc3c([nH]1)CCCC3)C(=O)N2 | 2.15 | 3 | 1.41 | 1.17 | 1.38 | 0.815 | 1.4 | 1.51 | 0.953 | 0.785 | 0.716 | 0.558 | 0.914 | 0.75 | 0.633 | 1.07 | 1.06 | 0.925
5 | COc1cc2nccc(Oc3ccc(NC(=O)C4(C(=O)Nc5ccc(F)cc5)CC4)cc3)c2cc1OC [XL-184 (Cabozantinib)] | 1.15 | 1.05 | 0.637 | 1.45 | 1.15 | 0.637 | 1.19 | 1 | 0.606 | 1.09 | 0.974 | 0.753 | 1.09 | 0.991 | 0.846 | 1.04 | 0.982 | 0.87
6 | CN(C)CCCn1cc(C2=C(c3c[nH]c4ccccc34)C(=O)NC2=O)c2ccccc21 | 1.16 | 1.77 | 0.588 | 1.35 | 1.38 | 0.562 | 1.21 | 1.39 | 0.665 | 1.01 | 0.939 | 0.812 | 1.1 | 1.01 | 0.745 | 1.01 | 0.971 | 0.648
7 | C=CC(=O)Nc1ccc2ncnc(Nc3ccc(OCc4cccc(F)c4)c(Cl)c3)c2c1 | 1.05 | 0.43 | -0.21 | 1.69 | 1.09 | 0.339 | 0.988 | 1.05 | 0.408 | 1.19 | 1.01 | 0.973 | 1.19 | 0.984 | 1.08 | 1.02 | 1.08 | 0.924
8 | C=CC(=O)Nc1cccc(Oc2nc(Nc3ccc(N4CCN(C)CC4)cc3)ncc2Cl)c1 | 1.28 | 1.04 | 0.363 | 0.683 | 0.91 | 0.3 | 0.825 | 1 | 0.314 | 1.06 | 0.993 | 0.985 | 1.01 | 1.01 | 0.979 | 1.04 | 1.04 | 0.956
9 | CC(C)(C)Cn1c(N)nc2ccc(-c3[nH]c(C(C)(C)C)nc3-c3ccc(F)cc3)nc21 | 1.29 | 1.2 | 1.38 | 1.7 | 0.828 | 1.01 | 0.969 | 1.07 | 0.535 | 0.792 | 0.566 | 0.717 | 0.697 | 1.09 | 0.505 | 0.915 | 0.689 | 0.688
10 | CCN1CCN(Cc2ccc(C(=O)Nc3ccc(C)c(Oc4ccc5c(c4)CC(=O)N5)c3)cc2C(F)(F)F)CC1 | 2.22 | 2.93 | 1.43 | 1.26 | 1.21 | 0.583 | 1.39 | 1.52 | 0.778 | 0.81 | 0.806 | 0.576 | 0.919 | 0.87 | 0.684 | 1.14 | 1.09 | 1.04
11 | C[C@H]1[C@H](C)CC[C@]2(C(=O)O)CC[C@]3(C)C(=CC[C@@H]4[C@@]5(C)C[C@@H](O)[C@H](O)[C@@](C)(CO)[C@@H]5CC[C@]43C)[C@H]12 [Asiatic Acid] | 1.04 | 1.17 | 1.12 | 1.09 | 1.29 | 1.43 | 1.33 | 1.11 | 0.962 | 1.07 | 1.04 | 1 | 1.04 | 1.1 | 0.976 | 1.1 | 1 | 0.952
12 | Nc1nc(N)c2nc(-c3cccc(O)c3)c(-c3cccc(O)c3)nc2n1 | 1.28 | 1.31 | 0.415 | 1.84 | 1.3 | 0.989 | 1.13 | 1.17 | 1.1 | 0.531 | 1.04 | 0.438 | 0.59 | 1.04 | 0.619 | 1.02 | 1.05 | 0.975
13 | Cc1cc(C)nc(NS(=O)(=O)c2ccc(NC(=S)NC(=O)COc3ccc(Br)cc3Cl)cc2)n1 | 1.5 | 1.64 | 1.18 | 1.31 | 1.46 | 1.39 | 1.5 | 1.42 | 1.1 | 1.09 | 0.979 | 0.931 | 1.18 | 0.979 | 0.988 | 1.03 | 1.07 | 0.993

Record cards, as listed above. Order of values: cell viability ([1]; 0.05 µM)	cell viability ([1]; 0.5 µM)	cell viability ([1]; 5 µM)	cell viability ([2]; 0.05 µM)	cell viability ([2]; 0.5 µM)	cell viability ([2]; 5 µM)	cell viability ([3]; 0.05 µM)	cell viability ([3]; 0.5 µM)	cell viability ([3]; 5 µM)	cell viability ([4]; 0.05 µM)	cell viability ([4]; 0.5 µM)	cell viability ([4]; 5 µM)	cell viability ([5]; 0.05 µM)	cell viability ([5]; 0.5 µM)	cell viability ([5]; 5 µM)	cell viability ([6]; 0.05 µM)	cell viability ([6]; 0.5 µM)	cell viability ([6]; 5 µM)
`CCN1CCN(Cc2ccc(C(=O)Nc3ccc(C)c(Oc4ccc5c(c4)CC(=O)N5)c3)cc2C(F)(F)F)CC1` as listed: 2.22	2.93	1.43	1.26	1.21	0.583	1.39	1.52	0.778	0.81	0.806	0.576	0.919	0.87	0.684	1.14	1.09	1.04
`CC(=O)[C@]1(O)Cc2c(O)c3c(c(O)c2[C@@H](O[C@H]2C[C@H](N)[C@H](O)[C@H](C)O2)C1)C(=O)c1ccccc1C3=O` [Idarubicin HCl] as listed: -0.16	-0.199	-0.204	-0.402	-0.446	-0.471	-0.266	-0.299	-0.308	0.188	-0.0564	-0.01	0.181	-0.049	-0.0489	0.202	-0.0378	-0.0472

— the supplement of paper PMC9454738
